Measurements: publication PMC8513853
Results are given in words; binding and its absence hold for the method and conditions named. Binding seen in cells or lysates may run through a third protein. Here binding means that the protein was enriched with, or labelled near, the bait; the list need not be complete.

Chains of the proteins cited; added tags and fusions are not shown.
UniProt P0DTC6: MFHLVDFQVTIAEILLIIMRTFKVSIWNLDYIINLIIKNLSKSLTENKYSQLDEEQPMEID
UniProt Q9NXV6: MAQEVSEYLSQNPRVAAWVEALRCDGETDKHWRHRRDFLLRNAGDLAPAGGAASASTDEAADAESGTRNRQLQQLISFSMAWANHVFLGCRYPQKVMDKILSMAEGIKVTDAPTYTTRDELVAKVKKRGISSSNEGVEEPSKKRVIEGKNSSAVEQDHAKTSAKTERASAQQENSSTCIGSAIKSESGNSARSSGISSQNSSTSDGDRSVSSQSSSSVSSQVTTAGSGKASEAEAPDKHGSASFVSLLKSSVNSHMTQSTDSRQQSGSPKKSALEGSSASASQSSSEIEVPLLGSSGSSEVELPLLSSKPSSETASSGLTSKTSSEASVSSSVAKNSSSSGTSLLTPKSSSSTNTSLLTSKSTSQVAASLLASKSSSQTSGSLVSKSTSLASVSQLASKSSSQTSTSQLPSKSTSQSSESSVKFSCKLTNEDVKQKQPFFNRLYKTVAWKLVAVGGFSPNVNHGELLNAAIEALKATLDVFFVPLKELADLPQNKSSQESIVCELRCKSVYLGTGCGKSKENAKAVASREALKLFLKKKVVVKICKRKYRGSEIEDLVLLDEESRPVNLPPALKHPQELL
UniProt P78344: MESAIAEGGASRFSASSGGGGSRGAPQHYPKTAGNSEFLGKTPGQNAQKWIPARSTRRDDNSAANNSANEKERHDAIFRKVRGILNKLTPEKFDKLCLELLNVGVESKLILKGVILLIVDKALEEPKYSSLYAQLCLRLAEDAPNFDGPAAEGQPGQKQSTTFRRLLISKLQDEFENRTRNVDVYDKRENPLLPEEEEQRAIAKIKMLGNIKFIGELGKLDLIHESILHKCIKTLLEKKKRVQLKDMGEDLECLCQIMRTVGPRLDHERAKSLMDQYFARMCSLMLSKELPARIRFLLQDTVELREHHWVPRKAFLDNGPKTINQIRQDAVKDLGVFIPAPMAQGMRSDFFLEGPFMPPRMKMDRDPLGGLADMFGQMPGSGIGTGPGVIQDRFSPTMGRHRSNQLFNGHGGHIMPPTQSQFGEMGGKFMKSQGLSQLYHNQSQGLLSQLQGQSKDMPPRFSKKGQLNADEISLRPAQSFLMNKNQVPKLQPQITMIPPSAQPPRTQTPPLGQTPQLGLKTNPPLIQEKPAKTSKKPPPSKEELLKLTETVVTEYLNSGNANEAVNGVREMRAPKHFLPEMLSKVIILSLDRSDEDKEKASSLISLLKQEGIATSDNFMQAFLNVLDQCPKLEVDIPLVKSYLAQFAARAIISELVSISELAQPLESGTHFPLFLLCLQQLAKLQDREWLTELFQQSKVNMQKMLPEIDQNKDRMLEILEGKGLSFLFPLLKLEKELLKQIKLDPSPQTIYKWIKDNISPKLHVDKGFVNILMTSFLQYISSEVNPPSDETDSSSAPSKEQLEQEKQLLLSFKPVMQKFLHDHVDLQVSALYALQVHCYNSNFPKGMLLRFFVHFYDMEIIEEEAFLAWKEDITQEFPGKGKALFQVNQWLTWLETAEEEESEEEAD
UniProt O60318: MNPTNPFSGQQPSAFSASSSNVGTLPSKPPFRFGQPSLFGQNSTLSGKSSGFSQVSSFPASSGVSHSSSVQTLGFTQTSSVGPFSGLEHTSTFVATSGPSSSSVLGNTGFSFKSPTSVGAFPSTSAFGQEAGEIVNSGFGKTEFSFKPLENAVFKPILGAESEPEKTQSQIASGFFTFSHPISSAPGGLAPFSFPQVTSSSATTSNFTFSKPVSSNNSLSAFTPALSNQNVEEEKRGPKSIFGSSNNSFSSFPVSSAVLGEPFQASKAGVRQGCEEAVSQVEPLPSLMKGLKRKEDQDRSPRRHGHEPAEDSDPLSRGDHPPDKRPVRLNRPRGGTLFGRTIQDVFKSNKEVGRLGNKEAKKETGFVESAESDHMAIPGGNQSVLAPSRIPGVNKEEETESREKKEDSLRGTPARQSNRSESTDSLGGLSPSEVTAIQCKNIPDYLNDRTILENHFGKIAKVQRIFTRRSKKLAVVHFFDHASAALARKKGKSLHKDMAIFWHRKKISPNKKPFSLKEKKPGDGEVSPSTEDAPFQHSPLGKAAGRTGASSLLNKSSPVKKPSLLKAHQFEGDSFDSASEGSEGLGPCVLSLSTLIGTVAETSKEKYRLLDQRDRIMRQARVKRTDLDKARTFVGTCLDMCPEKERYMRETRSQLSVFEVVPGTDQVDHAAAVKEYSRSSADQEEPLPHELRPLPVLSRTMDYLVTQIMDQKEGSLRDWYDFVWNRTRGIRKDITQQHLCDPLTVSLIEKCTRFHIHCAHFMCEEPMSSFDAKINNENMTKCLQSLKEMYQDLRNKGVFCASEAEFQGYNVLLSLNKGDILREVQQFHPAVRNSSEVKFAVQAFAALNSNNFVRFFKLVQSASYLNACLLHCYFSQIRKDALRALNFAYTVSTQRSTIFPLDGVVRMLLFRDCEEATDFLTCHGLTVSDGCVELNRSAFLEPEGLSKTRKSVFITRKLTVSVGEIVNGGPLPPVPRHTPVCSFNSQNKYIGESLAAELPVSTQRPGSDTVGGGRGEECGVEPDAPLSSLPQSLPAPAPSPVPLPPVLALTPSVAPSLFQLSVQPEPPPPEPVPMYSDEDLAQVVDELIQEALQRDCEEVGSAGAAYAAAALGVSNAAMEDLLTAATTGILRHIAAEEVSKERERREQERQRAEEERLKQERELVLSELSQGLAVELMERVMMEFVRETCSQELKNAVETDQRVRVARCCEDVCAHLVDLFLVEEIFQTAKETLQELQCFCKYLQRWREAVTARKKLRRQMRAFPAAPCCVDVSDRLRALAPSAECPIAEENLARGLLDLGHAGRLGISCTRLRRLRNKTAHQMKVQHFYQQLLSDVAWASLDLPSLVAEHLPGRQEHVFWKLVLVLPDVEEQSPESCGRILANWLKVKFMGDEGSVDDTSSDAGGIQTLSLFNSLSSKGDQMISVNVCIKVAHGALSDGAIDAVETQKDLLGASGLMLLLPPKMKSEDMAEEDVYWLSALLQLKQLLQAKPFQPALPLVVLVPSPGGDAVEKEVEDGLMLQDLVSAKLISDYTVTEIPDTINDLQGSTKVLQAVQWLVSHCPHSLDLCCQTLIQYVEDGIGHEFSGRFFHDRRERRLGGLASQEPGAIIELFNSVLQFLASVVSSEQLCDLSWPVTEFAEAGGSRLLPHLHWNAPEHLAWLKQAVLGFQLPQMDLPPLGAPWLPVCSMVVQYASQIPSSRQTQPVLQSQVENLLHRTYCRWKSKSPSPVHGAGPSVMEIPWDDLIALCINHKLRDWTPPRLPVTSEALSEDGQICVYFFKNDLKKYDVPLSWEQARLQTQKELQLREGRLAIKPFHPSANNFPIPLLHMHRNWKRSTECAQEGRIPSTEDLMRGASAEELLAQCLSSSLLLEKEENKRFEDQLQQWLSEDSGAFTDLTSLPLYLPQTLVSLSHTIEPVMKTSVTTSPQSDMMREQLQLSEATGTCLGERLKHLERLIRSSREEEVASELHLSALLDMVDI
UniProt Q7Z434: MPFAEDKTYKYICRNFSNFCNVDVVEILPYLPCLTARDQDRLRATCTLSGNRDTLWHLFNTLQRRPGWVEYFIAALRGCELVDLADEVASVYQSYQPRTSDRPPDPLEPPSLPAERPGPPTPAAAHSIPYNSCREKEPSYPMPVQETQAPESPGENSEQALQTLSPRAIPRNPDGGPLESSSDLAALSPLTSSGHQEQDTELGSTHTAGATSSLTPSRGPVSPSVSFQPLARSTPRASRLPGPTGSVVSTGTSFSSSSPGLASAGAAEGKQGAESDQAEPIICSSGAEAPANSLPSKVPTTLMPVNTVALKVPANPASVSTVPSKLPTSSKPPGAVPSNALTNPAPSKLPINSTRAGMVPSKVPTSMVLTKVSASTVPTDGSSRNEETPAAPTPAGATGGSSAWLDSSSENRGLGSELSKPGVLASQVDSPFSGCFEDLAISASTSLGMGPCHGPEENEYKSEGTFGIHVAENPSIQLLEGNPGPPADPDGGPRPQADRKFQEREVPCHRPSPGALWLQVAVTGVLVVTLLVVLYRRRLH

Columns and labels:
Assay in all cases: proximity labelling
[1] = biological target: SARS-CoV-2 NSP5, HA-BASU fusion (SARS-CoV-2) (UniProt P0DTD1)
[2] = biological target: SARS-CoV-2 NSP1, HA-BASU fusion (SARS-CoV-2) (UniProt P0DTD1)
[3] = biological target: SARS-CoV-2 ORF6, HA-BASU fusion (SARS-CoV-2) (UniProt P0DTC6)

Substance | binding [2] | binding [3] | other results
CDKN2AIP (from UniProt Q9NXV6 1-580) |  |  | binding [1]: binds
EIF3B (from UniProt P55884 1-814) | binds |  | 
EIF4G2 (from UniProt P78344 1-907) | binds |  | 
MCM3AP (from UniProt O60318 1-1980) |  | binds | 
Mitochondrial Activation of Viral Signaling (MAVS) (from UniProt Q7Z434 1-540) |  | binds | 
